# Reference: the supplement of paper PMC3334620
# In all, about 33,000 sequences were measured (“E-score (-0.5 to 0.5)”: median about -0.015, highest 2% from about 0.3 on). The list shows a part of the results.
# Target: T1, Abf1 (UniProt P14164)
# T1 sequence: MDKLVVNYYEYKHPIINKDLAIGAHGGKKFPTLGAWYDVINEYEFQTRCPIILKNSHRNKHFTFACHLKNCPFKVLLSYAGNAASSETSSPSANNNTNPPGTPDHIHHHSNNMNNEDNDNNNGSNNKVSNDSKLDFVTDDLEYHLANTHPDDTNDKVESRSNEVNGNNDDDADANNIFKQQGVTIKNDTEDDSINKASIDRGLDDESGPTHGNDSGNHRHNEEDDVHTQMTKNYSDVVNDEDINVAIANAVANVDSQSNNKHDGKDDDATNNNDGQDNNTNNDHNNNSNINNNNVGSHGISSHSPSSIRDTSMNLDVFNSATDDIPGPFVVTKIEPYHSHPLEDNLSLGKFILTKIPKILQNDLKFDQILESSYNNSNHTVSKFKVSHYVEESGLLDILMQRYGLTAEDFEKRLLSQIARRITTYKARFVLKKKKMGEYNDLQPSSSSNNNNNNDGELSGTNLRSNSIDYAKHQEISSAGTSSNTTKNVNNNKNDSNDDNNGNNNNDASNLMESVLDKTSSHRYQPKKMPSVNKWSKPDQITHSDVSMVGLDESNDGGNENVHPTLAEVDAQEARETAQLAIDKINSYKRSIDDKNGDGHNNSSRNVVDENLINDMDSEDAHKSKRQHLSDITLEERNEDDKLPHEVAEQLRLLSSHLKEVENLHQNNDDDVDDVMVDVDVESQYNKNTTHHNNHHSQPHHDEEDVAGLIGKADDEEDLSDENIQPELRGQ
# Assay: PBM E-score (8-mer binding enrichment) (E-score (-0.5 to 0.5)); higher = stronger / more preferred TF binding
# Settings: protein concentration: 200 nM; construct: GST-full length
# Outline: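 Yeast transcription factors, full-length or as DNA-binding domains, were expressed with a GST tag using PURExpress in vitro transcription/translation. At about 100-200 nM they were applied to universal all-10-mer Agilent arrays, double-stranded by primer extension on fresh or once-stripped slides. Fluorescent anti-GST detected bound protein, and masliner normalised the scans. E-scores for ungapped eight-base words, pooled with reverse complements, came from the Universal PBM Analysis Suite.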
row,Sequence,PBM E-score
1,GGGTTTAA,-0.0431
2,CGCACGGC,0.156
3,ATATAAAC,0.0743
4,ATGATTAC,0.127
5,CTTACCAC,-0.105
6,GAGGAATC,-0.0468
7,AATACAAC,-0.0317
8,AATAACCA,0.116
9,TAGATATA,0.0877
10,AGCCAGTA,-0.102
11,AAATAAAA,0.0964
12,ACATTCAG,-0.0658
13,GTAATAGA,-0.0206
14,ATTCTAAC,-0.0235
15,AAAGAAAA,0.0211
16,CGTCTCAA,0.15
17,GCTTACGA,-0.071
18,ATAACATC,0.192
19,ACTACGCC,-0.119
20,CAATAGCA,-0.123
21,CCCCTTAC,-0.0737
22,AATTTACA,-0.0267

row,Sequence,PBM E-score
1,AGTATACG,0.282
2,CCTGGGAC,-0.101
3,TGCGCCAA,0.0027
4,CGGGGTCA,-0.0973
5,GGAAAGAA,-0.0716
6,ATGGTATA,0.116
7,TGGCGCCA,-0.115
8,ACTGGGTC,-0.146
9,AACCTCTG,-0.0228
10,CCCTCCCA,-0.294
11,AACAAGTA,-0.175
12,CTTCCGGA,-0.1
13,AAGATCCA,-0.124
14,CTTTCTTA,0.0107
15,GTTCAATA,0.094
16,TATCCCCA,-0.0355
17,GAATAGTC,-0.0995
18,GCGTAATA,0.116
19,AGTACGCG,0.0303
20,GACTCGGC,-0.196
21,ACCATAGT,-0.0565
22,GTGTCTTA,0.0234

# Quoted at random: 4 entries already listed
row,Sequence,PBM E-score
2,CCTGGGAC,-0.101
1,AGTATACG,0.282
22,GTGTCTTA,0.0234
18,GCGTAATA,0.116

# (cont.)

row,Sequence,PBM E-score
1,GCTATACA,-0.0687
2,CACTCCAA,-0.0363
3,CAAAAGTC,0.0685
4,ATAGCTCC,-0.209
5,ATGGGAAA,-0.161
6,GTAAACAA,0.202
7,CGCCATCC,-0.0651
8,TCACGAGA,0.179
9,ACTGAAGC,-0.156
10,CACTCCTG,-0.207
11,CGACCTCG,0.0654
12,ACAATAAT,0.0401
13,CCGCTTTC,-0.159
14,AGCCGCAA,-0.221
15,GCACCAGA,-0.123
16,ATAGTCAG,0.0806
17,CAAACGCG,0.0604
18,GGGCTTCA,-0.214
19,ATGCAAAG,-0.0175
20,ATTACCTC,-0.0832
21,AACGCGAC,0.0646
22,GCGTTAGA,0.0278

row,Sequence,PBM E-score
1,AATTAACG,0.164
2,ACGTATAT,0.193
3,CCCGAAAC,0.0884
4,AATGCACT,-0.0348
5,TGCCGACA,0.143
6,TACAAGCA,0.0574
7,CCATTGTA,-0.117
8,GACAAACA,0.203
9,TGATGCAA,0.0768
10,ATCTGGTC,-0.134
11,CAAAATTC,0.11
12,CATCCCCG,-0.108
13,CTGAAGGC,-0.154
14,TATTTAGA,0.111
15,GTCTAGAA,0.0292
16,ACCCGGAA,-0.061
17,AAGAATTA,0.0283
18,GAAAGTCA,0.222
19,AAAGCCCA,-0.0233
20,ATGATAGC,0.24
